PubChem BioAssay AID1224828 – NIAID – 2016
Screen: 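Find genes required for NF-kappaB p65 moving into the nucleus after LPS in mouse macrophages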 (primary screen). System: mouse RAW264.7 G9 macrophage reporter cells (GFP-p65, Tnf promoter-mCherry). Reagents: siRNA pool against mouse genes, 100 nM. Time to read-out: 2 days siRNA transfection, then 40 min LPS before fixation. Treatment: LPS (Salmonella minnesota R595) at 10 ng/ml. Measured: 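Imaged p65 nuclear translocation ratio, normalised to the plate median, converted to robust z-scores and averaged across two replicates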. Scale: p65 translocation robust z-score: higher = more nuclear NF-kappaB p65 after LPS than the plate median; nuclear/cytoplasmic p65 ratio: higher = more nuclear NF-kappaB p65. Hit rule: 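Called active when z exceeds 3.3 or falls under -1.56 (median of Tlr4 controls), giving activity score of at least 50; no calls for control wells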. Meaning of the calls: active = hit (p65 shift raised or lowered); inactive = no clear change.
Shown is one part, drawn at random, of about 17,000 deposited reagents. 762 of all reagents (4.5%) count as active. 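Active calls include both raised and lowered p65 entry, mostly lowered; wells with fewer than 50 cells lack a z-score.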 Raw values vary from plate to plate and are shown uncorrected. No sequences are given here.

Myo7b (GeneID 17922) | p65 translocation robust z-score: -0.85; nuclear/cytoplasmic p65 ratio, rep 1: 1.61; nuclear/cytoplasmic p65 ratio, rep 2: 1.5; low cell count flag: enough cells to score; outcome: inactive
Pak4 (GeneID 70584) | nuclear/cytoplasmic p65 ratio, rep 1: 1.72; nuclear/cytoplasmic p65 ratio, rep 2: 1.18; low cell count flag: fewer than 50 cells per well; well left out of scoring; outcome: inactive
Gstk1 (GeneID 76263) | p65 translocation robust z-score: -0.84; nuclear/cytoplasmic p65 ratio, rep 1: 1.54; nuclear/cytoplasmic p65 ratio, rep 2: 1.4; low cell count flag: enough cells to score; outcome: inactive
Cngb3 (GeneID 30952) | p65 translocation robust z-score: -0.06; nuclear/cytoplasmic p65 ratio, rep 1: 1.26; nuclear/cytoplasmic p65 ratio, rep 2: 1.37; low cell count flag: enough cells to score; outcome: inactive
Pkhd1 (GeneID 241035) | p65 translocation robust z-score: 0.92; nuclear/cytoplasmic p65 ratio, rep 1: 1.53; nuclear/cytoplasmic p65 ratio, rep 2: 1.61; low cell count flag: enough cells to score; outcome: inactive
Dhrs11 (GeneID 192970) | p65 translocation robust z-score: -0.52; nuclear/cytoplasmic p65 ratio, rep 1: 1.5; nuclear/cytoplasmic p65 ratio, rep 2: 1.57; low cell count flag: enough cells to score; outcome: inactive
Ctrb1 (GeneID 66473) | p65 translocation robust z-score: 0.24; nuclear/cytoplasmic p65 ratio, rep 1: 1.69; nuclear/cytoplasmic p65 ratio, rep 2: 1.74; low cell count flag: enough cells to score; outcome: inactive
Or8d2b (GeneID 258811) | p65 translocation robust z-score: 0.3; nuclear/cytoplasmic p65 ratio, rep 1: 1.64; nuclear/cytoplasmic p65 ratio, rep 2: 1.14; low cell count flag: enough cells to score; outcome: inactive
Fbxw11 (GeneID 103583) | p65 translocation robust z-score: -2.32; nuclear/cytoplasmic p65 ratio, rep 1: 1.12; nuclear/cytoplasmic p65 ratio, rep 2: 1.07; low cell count flag: enough cells to score; outcome: active
Kif18b (GeneID 70218) | nuclear/cytoplasmic p65 ratio, rep 1: 1.01; nuclear/cytoplasmic p65 ratio, rep 2: 1.04; low cell count flag: fewer than 50 cells per well; well left out of scoring; outcome: inactive
Or10x4 (GeneID 258709) | nuclear/cytoplasmic p65 ratio, rep 1: 1.17; nuclear/cytoplasmic p65 ratio, rep 2: 1.54; low cell count flag: fewer than 50 cells per well; well left out of scoring; outcome: inactive
Atp4a (GeneID 11944) | p65 translocation robust z-score: -1.59; nuclear/cytoplasmic p65 ratio, rep 1: 1.18; nuclear/cytoplasmic p65 ratio, rep 2: 1.35; low cell count flag: enough cells to score; outcome: active
Or4f7 (GeneID 258397) | p65 translocation robust z-score: -1.13; nuclear/cytoplasmic p65 ratio, rep 1: 1.44; nuclear/cytoplasmic p65 ratio, rep 2: 1.15; low cell count flag: enough cells to score; outcome: inactive
Pif1 (GeneID 208084) | p65 translocation robust z-score: 1.67; nuclear/cytoplasmic p65 ratio, rep 1: 1.73; nuclear/cytoplasmic p65 ratio, rep 2: 2.08; low cell count flag: enough cells to score; outcome: inactive
Bcorl1 (GeneID 320376) | p65 translocation robust z-score: 0.54; nuclear/cytoplasmic p65 ratio, rep 1: 1.67; nuclear/cytoplasmic p65 ratio, rep 2: 1.91; low cell count flag: enough cells to score; outcome: inactive
Etv4 (GeneID 18612) | p65 translocation robust z-score: 0.14; nuclear/cytoplasmic p65 ratio, rep 1: 1.47; nuclear/cytoplasmic p65 ratio, rep 2: 1.39; low cell count flag: enough cells to score; outcome: inactive
Hdac2 (GeneID 15182) | p65 translocation robust z-score: -0.56; nuclear/cytoplasmic p65 ratio, rep 1: 1.33; nuclear/cytoplasmic p65 ratio, rep 2: 1.32; low cell count flag: enough cells to score; outcome: inactive
Mrpl51 (GeneID 66493) | p65 translocation robust z-score: 1.08; nuclear/cytoplasmic p65 ratio, rep 1: 1.97; nuclear/cytoplasmic p65 ratio, rep 2: 1.74; low cell count flag: enough cells to score; outcome: inactive
Nudt11 (GeneID 58242) | p65 translocation robust z-score: 1.92; nuclear/cytoplasmic p65 ratio, rep 1: 1.93; nuclear/cytoplasmic p65 ratio, rep 2: 1.88; low cell count flag: enough cells to score; outcome: inactive
Mrpl16 (GeneID 94063) | p65 translocation robust z-score: -1.24; nuclear/cytoplasmic p65 ratio, rep 1: 1.58; nuclear/cytoplasmic p65 ratio, rep 2: 1.07; low cell count flag: enough cells to score; outcome: inactive
Smcp (GeneID 17235) | p65 translocation robust z-score: 0.93; nuclear/cytoplasmic p65 ratio, rep 1: 1.86; nuclear/cytoplasmic p65 ratio, rep 2: 1.69; low cell count flag: enough cells to score; outcome: inactive

In a second layout: 3 of the entries above.
target	p65 translocation robust z-score	nuclear/cytoplasmic p65 ratio, rep 1	nuclear/cytoplasmic p65 ratio, rep 2	low cell count flag	outcome
Kif18b (GeneID 70218)		1.01	1.04	fewer than 50 cells per well; well left out of scoring	inactive
Or10x4 (GeneID 258709)		1.17	1.54	fewer than 50 cells per well; well left out of scoring	inactive
Atp4a (GeneID 11944)	-1.59	1.18	1.35	enough cells to score	active
